Among the data in doi:10.1101/2024.04.29.591624 are binding values, retold here.

Amino acid sequences for entries named in this document (tags omitted). A change or cut given only in a name is not applied to a line headed by its entry. Residues count along the entry.
UniProt P46531, residues 1754-2555: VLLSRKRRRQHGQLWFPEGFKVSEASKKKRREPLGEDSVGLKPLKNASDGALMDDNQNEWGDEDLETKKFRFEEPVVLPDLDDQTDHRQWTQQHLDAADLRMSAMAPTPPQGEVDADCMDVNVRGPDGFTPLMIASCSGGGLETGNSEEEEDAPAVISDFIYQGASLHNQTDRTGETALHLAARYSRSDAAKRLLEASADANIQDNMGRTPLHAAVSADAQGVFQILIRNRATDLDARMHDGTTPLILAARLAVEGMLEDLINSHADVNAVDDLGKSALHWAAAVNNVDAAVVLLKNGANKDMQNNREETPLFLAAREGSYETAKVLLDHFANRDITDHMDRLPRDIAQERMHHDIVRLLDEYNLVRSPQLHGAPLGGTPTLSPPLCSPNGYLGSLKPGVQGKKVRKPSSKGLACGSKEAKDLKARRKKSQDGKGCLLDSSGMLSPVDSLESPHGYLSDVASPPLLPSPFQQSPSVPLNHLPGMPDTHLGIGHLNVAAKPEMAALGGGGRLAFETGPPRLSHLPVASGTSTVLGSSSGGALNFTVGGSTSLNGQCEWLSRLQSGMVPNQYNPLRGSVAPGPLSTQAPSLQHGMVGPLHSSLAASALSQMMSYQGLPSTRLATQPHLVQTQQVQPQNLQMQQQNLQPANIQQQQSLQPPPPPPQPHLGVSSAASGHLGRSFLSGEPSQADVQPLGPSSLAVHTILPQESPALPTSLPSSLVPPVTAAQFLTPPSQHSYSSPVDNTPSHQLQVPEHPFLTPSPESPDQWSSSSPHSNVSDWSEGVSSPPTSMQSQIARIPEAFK
UniProt Q00987: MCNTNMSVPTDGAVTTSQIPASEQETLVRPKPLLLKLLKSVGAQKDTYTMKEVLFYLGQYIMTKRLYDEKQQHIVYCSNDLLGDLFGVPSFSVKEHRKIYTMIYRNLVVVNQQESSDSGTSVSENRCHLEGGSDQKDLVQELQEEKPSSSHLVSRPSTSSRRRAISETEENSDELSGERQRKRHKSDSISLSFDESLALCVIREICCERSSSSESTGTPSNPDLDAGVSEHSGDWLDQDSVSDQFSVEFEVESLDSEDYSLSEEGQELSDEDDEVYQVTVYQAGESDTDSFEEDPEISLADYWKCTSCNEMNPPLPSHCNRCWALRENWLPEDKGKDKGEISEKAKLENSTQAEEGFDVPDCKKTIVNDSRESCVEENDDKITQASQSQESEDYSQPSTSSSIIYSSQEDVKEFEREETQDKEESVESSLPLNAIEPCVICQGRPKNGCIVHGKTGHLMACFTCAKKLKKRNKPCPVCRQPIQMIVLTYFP

For the assay, the target named is Notch Intracellular Domain (NICD), the active form of NOTCH1, produced from the NOTCH1-DeltaEx construct (UniProt P46531). In words: co-IP.

Results are given in words; binding and its absence hold for the method and conditions named. In cells and extracts the contact can be indirect. Some binding calls cover weakened binding; strength is not graded here.

Regarding “E3 ligase-dead MDM2 mutant (C464A point mutation in the RING domain) (from UniProt Q00987 1-491) (enzyme)”, the binding result is “binds”.

Regarding “wild type MDM2 (from UniProt Q00987 1-491) (enzyme)”, the binding result is reported as “binds”.
